Measurements: the supplement of paper PMC12819154, “High-throughput peptide-centric local stability assay extends protein–ligand identification to membrane proteins, tissues and bacteria” (Nature Structural & Molecular Biology, 2025)
The other results are listed elsewhere or left out. Most values lie at the level of the controls, where differences are scatter.

Amino acid sequences for entries named in this document (tags omitted). A change or cut given only in a name is not applied to a line headed by its entry.
UniProt Q9HCI6: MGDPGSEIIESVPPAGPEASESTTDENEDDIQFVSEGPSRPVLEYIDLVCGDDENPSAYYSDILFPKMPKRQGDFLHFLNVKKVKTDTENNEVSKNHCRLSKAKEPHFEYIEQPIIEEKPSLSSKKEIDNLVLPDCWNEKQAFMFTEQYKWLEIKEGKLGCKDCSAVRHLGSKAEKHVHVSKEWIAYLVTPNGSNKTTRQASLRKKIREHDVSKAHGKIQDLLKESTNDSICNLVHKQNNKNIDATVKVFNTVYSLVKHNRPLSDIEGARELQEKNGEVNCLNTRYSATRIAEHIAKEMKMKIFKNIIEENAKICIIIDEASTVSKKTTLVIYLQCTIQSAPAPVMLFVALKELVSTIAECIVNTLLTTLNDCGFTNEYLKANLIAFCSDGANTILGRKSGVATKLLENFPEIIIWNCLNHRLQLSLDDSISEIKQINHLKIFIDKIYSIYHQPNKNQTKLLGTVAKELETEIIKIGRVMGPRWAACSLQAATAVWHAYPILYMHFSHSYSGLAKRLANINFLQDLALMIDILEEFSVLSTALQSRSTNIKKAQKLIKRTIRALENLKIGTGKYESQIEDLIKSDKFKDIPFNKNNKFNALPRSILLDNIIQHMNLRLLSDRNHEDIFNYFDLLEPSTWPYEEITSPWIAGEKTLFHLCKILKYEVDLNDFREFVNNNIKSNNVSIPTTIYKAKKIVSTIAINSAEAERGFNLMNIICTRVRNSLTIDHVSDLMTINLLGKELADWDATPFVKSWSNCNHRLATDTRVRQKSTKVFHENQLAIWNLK
UniProt Q9H871: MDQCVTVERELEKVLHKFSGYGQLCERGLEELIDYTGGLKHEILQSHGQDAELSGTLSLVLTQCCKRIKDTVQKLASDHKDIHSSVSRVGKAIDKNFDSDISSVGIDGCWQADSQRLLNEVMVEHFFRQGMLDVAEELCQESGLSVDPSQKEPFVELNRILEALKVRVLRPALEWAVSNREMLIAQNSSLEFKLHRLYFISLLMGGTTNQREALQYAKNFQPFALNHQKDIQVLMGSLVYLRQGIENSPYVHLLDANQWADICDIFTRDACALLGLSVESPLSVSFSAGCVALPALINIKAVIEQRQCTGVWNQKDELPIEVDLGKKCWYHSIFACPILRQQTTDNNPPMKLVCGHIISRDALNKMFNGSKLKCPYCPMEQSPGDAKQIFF
UniProt Q9HAU4, whole entry: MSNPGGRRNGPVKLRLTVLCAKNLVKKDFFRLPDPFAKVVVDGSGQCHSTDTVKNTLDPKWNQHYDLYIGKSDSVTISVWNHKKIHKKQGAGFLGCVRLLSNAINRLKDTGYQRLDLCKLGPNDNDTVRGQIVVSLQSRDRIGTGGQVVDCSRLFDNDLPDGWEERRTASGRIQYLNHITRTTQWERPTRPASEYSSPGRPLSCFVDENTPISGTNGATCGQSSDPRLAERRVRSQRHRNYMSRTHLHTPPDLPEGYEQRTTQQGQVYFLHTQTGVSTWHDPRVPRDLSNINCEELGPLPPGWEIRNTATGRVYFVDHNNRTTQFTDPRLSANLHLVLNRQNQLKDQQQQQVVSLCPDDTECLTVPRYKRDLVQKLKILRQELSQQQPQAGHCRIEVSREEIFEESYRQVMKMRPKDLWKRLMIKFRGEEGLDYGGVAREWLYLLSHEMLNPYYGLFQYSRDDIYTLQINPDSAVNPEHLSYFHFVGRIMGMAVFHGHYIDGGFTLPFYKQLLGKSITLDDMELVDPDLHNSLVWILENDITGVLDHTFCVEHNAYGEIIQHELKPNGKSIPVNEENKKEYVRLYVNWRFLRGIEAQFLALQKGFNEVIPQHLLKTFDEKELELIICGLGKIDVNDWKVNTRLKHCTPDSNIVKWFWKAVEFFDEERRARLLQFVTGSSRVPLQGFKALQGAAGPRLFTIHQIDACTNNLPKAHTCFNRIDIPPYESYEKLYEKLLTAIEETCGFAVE
UniProt Q9HBH9: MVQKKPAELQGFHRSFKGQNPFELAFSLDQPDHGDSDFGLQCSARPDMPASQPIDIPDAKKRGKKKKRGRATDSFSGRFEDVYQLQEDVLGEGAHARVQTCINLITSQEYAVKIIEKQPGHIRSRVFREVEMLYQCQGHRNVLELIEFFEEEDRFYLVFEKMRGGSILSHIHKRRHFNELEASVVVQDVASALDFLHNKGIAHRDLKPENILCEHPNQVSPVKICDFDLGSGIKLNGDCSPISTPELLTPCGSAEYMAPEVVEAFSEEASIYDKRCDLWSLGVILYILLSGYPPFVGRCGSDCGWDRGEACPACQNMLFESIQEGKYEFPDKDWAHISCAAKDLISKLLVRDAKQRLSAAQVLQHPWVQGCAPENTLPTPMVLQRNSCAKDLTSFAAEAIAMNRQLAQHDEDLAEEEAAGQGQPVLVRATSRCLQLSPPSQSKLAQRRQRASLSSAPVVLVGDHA
UniProt Q9H201: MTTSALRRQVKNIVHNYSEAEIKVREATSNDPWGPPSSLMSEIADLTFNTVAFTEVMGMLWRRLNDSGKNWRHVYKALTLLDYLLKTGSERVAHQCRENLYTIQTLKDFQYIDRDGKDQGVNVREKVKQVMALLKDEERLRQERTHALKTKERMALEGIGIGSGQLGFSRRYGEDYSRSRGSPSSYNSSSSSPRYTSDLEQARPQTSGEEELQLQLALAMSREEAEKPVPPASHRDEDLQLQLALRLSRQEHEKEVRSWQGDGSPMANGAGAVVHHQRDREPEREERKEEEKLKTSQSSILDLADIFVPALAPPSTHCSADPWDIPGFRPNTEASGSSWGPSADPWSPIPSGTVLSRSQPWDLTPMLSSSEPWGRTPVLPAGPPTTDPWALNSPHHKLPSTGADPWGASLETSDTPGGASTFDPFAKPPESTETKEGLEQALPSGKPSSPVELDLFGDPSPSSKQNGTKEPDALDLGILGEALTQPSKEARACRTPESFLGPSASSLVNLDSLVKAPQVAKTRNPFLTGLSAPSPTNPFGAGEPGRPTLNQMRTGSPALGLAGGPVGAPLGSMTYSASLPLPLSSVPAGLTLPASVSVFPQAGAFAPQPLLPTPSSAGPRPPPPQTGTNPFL
UniProt Q9HA77: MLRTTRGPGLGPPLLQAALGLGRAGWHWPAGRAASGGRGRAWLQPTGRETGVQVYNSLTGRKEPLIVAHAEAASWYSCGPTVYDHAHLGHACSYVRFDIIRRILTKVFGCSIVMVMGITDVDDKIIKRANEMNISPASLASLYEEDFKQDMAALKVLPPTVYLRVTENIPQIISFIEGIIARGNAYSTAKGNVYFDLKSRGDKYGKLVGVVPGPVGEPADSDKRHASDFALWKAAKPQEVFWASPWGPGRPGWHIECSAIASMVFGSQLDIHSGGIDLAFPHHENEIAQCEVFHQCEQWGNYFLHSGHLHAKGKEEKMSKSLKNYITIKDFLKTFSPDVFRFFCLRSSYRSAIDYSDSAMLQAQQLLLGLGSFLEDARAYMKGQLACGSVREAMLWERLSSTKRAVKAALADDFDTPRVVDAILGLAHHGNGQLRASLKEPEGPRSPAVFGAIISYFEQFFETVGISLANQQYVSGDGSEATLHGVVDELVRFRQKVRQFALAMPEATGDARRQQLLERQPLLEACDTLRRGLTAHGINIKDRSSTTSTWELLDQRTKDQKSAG
UniProt Q9H3L0: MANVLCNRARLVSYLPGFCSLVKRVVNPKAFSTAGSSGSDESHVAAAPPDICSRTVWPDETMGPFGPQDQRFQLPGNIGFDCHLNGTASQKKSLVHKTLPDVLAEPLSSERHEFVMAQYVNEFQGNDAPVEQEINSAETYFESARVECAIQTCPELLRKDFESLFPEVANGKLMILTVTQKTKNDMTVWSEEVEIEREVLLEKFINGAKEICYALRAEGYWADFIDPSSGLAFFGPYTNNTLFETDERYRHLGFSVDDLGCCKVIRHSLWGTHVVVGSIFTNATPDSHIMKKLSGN
UniProt Q9H6U8: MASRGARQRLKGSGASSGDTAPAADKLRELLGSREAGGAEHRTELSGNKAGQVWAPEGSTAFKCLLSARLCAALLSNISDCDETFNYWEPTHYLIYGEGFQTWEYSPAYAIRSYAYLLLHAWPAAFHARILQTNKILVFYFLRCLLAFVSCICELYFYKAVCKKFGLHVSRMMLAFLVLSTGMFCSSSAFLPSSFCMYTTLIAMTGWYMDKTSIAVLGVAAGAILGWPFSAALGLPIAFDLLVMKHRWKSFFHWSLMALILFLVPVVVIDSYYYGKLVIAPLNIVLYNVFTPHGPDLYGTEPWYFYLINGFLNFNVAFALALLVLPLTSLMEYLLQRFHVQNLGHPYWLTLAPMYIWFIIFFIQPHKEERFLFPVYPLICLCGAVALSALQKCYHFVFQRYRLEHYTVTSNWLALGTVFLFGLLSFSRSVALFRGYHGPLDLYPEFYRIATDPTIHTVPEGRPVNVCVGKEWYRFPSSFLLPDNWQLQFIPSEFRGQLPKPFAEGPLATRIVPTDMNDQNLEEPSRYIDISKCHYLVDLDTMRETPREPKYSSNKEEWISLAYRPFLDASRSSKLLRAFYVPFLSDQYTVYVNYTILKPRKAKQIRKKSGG
UniProt Q9H7B4: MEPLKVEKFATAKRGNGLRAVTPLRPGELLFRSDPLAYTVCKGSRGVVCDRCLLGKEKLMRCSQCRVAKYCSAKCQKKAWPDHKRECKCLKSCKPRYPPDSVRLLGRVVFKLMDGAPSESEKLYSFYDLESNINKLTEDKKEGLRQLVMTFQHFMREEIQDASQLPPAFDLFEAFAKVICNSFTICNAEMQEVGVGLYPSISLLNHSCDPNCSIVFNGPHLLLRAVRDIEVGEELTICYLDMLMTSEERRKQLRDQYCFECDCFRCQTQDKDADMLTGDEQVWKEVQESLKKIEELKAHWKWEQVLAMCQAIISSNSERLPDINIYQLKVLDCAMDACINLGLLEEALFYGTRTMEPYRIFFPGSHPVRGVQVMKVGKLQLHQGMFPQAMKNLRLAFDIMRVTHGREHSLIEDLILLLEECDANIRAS
UniProt Q9H3N1: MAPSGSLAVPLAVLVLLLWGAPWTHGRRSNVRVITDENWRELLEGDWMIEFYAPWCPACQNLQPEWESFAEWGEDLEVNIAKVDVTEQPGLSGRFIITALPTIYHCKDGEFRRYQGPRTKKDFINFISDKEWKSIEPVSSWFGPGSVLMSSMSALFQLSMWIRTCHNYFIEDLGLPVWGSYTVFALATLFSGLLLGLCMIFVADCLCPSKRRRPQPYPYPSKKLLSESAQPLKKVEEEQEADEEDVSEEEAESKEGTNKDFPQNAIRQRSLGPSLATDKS
UniProt Q9H1K1: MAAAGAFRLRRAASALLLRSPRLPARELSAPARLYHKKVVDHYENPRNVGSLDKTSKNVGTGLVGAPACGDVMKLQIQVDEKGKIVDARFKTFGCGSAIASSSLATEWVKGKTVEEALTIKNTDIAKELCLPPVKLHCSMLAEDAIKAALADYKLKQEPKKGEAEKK
UniProt Q9H981, whole entry: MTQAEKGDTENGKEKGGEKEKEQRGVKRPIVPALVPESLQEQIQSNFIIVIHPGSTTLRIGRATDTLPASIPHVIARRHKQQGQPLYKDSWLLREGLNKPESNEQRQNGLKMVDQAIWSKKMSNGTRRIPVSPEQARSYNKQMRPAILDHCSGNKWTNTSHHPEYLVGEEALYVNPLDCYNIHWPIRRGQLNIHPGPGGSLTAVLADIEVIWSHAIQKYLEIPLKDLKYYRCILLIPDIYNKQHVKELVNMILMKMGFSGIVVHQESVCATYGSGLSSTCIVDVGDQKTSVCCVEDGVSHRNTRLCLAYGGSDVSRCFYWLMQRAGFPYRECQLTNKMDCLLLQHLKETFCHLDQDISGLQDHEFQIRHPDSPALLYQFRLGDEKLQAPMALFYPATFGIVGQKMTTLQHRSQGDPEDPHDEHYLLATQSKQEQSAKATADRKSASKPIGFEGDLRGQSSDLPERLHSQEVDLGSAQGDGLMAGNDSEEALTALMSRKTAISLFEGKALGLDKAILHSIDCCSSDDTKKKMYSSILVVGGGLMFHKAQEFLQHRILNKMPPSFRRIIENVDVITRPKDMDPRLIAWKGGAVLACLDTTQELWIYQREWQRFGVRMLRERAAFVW

Compound: Cc1nc(Nc2ncc(C(=O)Nc3c(C)cccc3Cl)s2)cc(N2CCN(CCO)CC2)n1 [dasatinib]
Assay: log2 fold change of tryptic peptide abundance, ligand vs vehicle (limited proteolysis) (log2 ratio); higher = more trypsin-susceptible (destabilized)
Settings: ligand concentration: 5 uM; sample: K562 cleared lysate

| Target | log2 fold change |
| --- | --- |
| PLEKHG2 (peptide sequence: AQGAPDAPFHM, peptide start residue: 1376) (UniProt Q9H7P9) | -0.206 |
| SLC12A5 (peptide sequence: HLPGEDVK, peptide start residue: 33) (UniProt Q9H2X9) | 0.0347 |
| KIAA1586 (peptide sequence: VFHENQLAIWNLK, peptide start residue: 775) (UniProt Q9HCI6) | -0.503 |
| UniProt Q9H871 (peptide sequence: CWYHSIFACPILR, peptide start residue: 328) | -0.165 |
| UniProt Q9HAU4 (peptide sequence: THLHTPPDLPEGYEQR, peptide start residue: 245) | -0.308 |
| UniProt Q9HBH9 (peptide sequence: DLKPENILCEHPNQVSPVK, peptide start residue: 205) | -0.377 |
| UniProt Q9H201 (peptide sequence: NIVHNYSEAEIK, peptide start residue: 12) | 0.223 |
| CARS2 (peptide sequence: GLTAHGINIK, peptide start residue: 532) (UniProt Q9HA77) | -0.349 |
| MMADHC (peptide sequence: HLGFSVDDLGCCKVIR, peptide start residue: 251) (UniProt Q9H3L0) | -0.142 |
| ALG9 (peptide sequence: GSGASSGDTAPAADKLR, peptide start residue: 12) (UniProt Q9H6U8) | -0.326 |
| SMYD3 (peptide sequence: LAFDIMR, peptide start residue: 395) (UniProt Q9H7B4) | -0.215 |
| UniProt Q9H3N1 (peptide sequence: LLSESAQPLK, peptide start residue: 224) | 0.14 |
| ISCU (peptide sequence: GKTVEEALTIK, peptide start residue: 111) (UniProt Q9H1K1) | 0.582 |
| MARCHF7 (peptide sequence: DEAPIISNSER, peptide start residue: 249) (UniProt Q9H992) | 0.3 |
| ACTR8 (peptide sequence: KTAISLFEGK, peptide start residue: 498) (UniProt Q9H981) | 0.631 |

Two successive records out of the list so far, for reference:

| Target | log2 fold change |
| --- | --- |
| SLC12A5 (peptide sequence: HLPGEDVK, peptide start residue: 33) (UniProt Q9H2X9) | 0.0347 |
| KIAA1586 (peptide sequence: VFHENQLAIWNLK, peptide start residue: 775) (UniProt Q9HCI6) | -0.503 |
